Experimental data taken from article PMC6089883.
These are yes or no findings as the source states them, for the method shown. In cells and extracts the contact can be indirect. Some results given as binding are weak or reduced against the parent protein; the word gives no strength. Where a sequence is shown, tags or fusion partners need not be part of it.

By UniProt entry, the sequences of proteins in these tests, tags left out.
UniProt Q59U81: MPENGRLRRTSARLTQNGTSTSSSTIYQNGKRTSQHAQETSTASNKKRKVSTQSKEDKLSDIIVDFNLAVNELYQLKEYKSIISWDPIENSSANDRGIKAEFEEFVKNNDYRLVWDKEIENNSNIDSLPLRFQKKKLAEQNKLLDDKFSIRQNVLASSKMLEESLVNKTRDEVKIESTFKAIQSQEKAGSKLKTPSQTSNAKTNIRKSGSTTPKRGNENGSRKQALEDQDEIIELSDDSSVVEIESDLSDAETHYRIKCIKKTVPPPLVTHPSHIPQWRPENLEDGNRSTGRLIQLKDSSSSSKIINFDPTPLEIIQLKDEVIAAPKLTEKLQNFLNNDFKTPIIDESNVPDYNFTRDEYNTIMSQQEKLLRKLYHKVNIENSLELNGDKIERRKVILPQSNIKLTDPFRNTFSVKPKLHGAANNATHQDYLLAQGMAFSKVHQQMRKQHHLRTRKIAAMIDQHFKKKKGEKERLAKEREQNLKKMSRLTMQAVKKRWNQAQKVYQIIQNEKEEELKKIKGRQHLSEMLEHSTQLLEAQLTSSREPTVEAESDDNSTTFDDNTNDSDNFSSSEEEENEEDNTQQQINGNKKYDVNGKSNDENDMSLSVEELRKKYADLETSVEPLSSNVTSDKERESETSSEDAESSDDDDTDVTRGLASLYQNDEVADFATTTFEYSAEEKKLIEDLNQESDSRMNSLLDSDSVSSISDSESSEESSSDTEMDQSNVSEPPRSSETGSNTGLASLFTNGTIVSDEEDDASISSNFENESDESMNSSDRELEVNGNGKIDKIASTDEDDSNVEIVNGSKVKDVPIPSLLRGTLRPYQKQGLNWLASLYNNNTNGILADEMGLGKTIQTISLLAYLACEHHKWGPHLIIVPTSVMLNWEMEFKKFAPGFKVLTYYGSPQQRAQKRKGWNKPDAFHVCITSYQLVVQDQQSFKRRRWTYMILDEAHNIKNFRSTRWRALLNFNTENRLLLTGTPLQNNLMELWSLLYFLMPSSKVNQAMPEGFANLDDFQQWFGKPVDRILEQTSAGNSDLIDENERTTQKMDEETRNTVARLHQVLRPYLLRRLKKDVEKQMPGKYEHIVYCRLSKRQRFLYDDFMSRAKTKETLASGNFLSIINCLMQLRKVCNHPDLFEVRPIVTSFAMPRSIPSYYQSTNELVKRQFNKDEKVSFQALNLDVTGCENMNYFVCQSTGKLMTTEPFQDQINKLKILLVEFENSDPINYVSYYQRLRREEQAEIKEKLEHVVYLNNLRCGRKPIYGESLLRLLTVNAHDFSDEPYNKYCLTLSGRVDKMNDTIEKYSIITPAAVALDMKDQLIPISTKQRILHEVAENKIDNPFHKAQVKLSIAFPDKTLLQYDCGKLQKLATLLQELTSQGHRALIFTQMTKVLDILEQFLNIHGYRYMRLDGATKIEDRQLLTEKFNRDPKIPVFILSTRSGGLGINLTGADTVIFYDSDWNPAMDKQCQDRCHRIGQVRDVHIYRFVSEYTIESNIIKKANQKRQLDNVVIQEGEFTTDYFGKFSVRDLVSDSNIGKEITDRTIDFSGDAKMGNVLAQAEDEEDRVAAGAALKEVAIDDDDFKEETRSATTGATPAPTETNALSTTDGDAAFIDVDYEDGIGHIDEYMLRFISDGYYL

T1: Yaf9-Myc (C. albicans) (UniProt Q59LC9)
T1 sequence: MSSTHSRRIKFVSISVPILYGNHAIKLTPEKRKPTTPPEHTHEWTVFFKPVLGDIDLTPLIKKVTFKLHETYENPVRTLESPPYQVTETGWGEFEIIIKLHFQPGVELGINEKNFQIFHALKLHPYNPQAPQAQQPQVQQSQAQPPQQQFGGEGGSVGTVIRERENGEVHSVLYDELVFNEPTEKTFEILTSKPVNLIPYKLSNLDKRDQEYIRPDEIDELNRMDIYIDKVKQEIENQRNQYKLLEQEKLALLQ


Tests used:
Yaf9-Myc (C. albicans) [1] = target: T1, Yaf9-Myc (C. albicans); assay: co-IP; whole-cell extracts of C. albicans carrying Myc- and HA-tagged proteins; yeast state (YPD, 25 °C), also time courses of yeast-to-hypha and hypha-to-yeast transition and deletion mutants eaf7, yng2, bdf1; anti-Myc or anti-HA antibody on protein A-Sepharose, 4 °C, 4 h; 50 mM HEPES pH 7.5, 140 mM NaCl, 1 mM EDTA, 1% Triton X-100, 0.1% sodium deoxycholate
Yaf9-Myc (C. albicans) [2] = target: T1, Yaf9-Myc (C. albicans); assay: condition: only hyphal state (YPD with 10% serum, 37 °C); co-IP; as a1, but cells in the hyphal state (YPD with 10% serum, 37 °C)

Molecule | binding (Yaf9-Myc (C. albicans) [1]) | binding (Yaf9-Myc (C. albicans) [2])
Swr1-HA (from UniProt Q59U81 1-1641) | binds | –
Esa1-HA (protein, UniProt Q5A7Q2 1-541) MAVAEIKKEKGSSLSPEPSSPIQILSTEPDANTDIKQEKFTPKDILPGCKVHVSKDGEFRLAEILQEHIKKGRKVFYVHYQDFNKRLDEWIELDRIDFTRSLILPEIKADTKENKSKKKSKSKGQTKLSKNNTTANSTTGTPQPSDGQPIMGDDEMDLENLNVQGLKRPGEEFSREDEIKKLRTSGSMTQNHSEVARVRNLSTIILGEHIIEPWYFSPYPIELTEEDEIYICDFTLSYFGSKKQFERFRSKCSMKHPPGNEIYRDSKVSFWEIDGRKQRTWCRNLCLLSKLFLDHKTLYYDVDPFLFYIMTIKSDQGHHVVGYFSKEKESADGYNVACILTLPCYQKRGFGKLLIQFSYMLTKVERKVGSPEKPLSDLGLLSYRAYWTDTLVKLLVERNSPALFRKNNSQLEYDEAENGKDSSATPTPGPGSNASQSSILASAAASRSGLNSSPIFSNEITIEDISSITCMTTTDILHTLTTLQMLRYYKGQHIIVLTDQIMELYEKLVKKVKEKKKHELNPKLLHWTPPSFTANQLRFGW | binds | no binding
